From PubChem BioAssay AID1850 (Southern Research Specialized Biocontainment Screening …, 2009)
pIC50: −log10 of the molar value.

Test system: Salmonella Typhi PhoP-promoter GFP reporter, fluorescence, 4 h
Experiment: Inhibition of PhoP regulon, Salmonella typhi GFP reporter cells, confirmation, 4 h (AID 1850)

## CNCCCC12CCC(c3ccccc31)c1ccccc12
  pIC50: 3.93
